Measurements published in patent EP2518139A1, “Use of indirubin derivatives for producing pluripotent stem cells” (Universitätsklinikum Jena, priority 2011, dated 2012).
“Also recorded” adds a separate entry of the source. For at least one compound, name, drawing or mass did not settle the structure.

Legend:
Smad1/5/8 = assay: Immunoblot of p-Smad1/5/8 and pan-Smad1/5/8 in HeLa cells; assay type: cell-based, human
[1] = system: BMP- and TGFß-relative R-Smads; assay: Immunoblot of BMP- and TGFß-relative R-Smads in HeLa cells (TGFß or FCS stimulation); assay type: cell-based, human; conditions: 24h, E738 (1µM), Bio (5µM), DM (1µM), Repsox (10µM)

| SMILES | phosphhorylated Smad1/5/8 (Smad1/5/8; BMP2 (100ng/mL), 24h, DM (1µM)) | level of Smad1/5/8 (total) (Smad1/5/8; BMP2 (100ng/mL), 24h, DM (1µM) alone) | p-Smad1/5/8 (Smad1/5/8; compound (1µM) 1 h before BMP2 addition, removed 2h after treatment) | activation of both types of R-Smads ([1]; FCS 10%) | P- and pan-Smads (R-Smads) ([1]; TGFß (20ng/mL)) | level of pan Smad1/5/8 (Smad1/5/8; BMP, MAPK inhibitor alone or in combination with E738) |
| --- | --- | --- | --- | --- | --- | --- |
| c1cc(-c2cnn3cc(-c4ccc(OCCN5CCCCC5)cc4)cnc23)ccn1 [DM, Dorsomorphin, reference compound] | strong repressive effect | could not alter the level of Smad1/5/8; also recorded: did not chang the total Smad1/5/8 | acute inhibitory effect | only partly | unable to inhibit TGFß-drived R-Samd activation |  |
| Oc1c2ccccc2c2c3c(cccc13)N=N2 [SP600125, reference compound] |  |  |  |  |  | neither alter the level of pan Smad1/5/8 alone, nor attenuate the E738-mediated degradation in combination with E738 |
